No constants are given. Whether binding was seen depends on the method and setting. Binding seen in cells or lysates may run through a third protein. Here binding means that the protein was enriched with, or labelled near, the bait; the list need not be complete.
Target: T1, ubiquitin ligase PDZRN3 (UniProt Q9UPQ7)
T1 sequence: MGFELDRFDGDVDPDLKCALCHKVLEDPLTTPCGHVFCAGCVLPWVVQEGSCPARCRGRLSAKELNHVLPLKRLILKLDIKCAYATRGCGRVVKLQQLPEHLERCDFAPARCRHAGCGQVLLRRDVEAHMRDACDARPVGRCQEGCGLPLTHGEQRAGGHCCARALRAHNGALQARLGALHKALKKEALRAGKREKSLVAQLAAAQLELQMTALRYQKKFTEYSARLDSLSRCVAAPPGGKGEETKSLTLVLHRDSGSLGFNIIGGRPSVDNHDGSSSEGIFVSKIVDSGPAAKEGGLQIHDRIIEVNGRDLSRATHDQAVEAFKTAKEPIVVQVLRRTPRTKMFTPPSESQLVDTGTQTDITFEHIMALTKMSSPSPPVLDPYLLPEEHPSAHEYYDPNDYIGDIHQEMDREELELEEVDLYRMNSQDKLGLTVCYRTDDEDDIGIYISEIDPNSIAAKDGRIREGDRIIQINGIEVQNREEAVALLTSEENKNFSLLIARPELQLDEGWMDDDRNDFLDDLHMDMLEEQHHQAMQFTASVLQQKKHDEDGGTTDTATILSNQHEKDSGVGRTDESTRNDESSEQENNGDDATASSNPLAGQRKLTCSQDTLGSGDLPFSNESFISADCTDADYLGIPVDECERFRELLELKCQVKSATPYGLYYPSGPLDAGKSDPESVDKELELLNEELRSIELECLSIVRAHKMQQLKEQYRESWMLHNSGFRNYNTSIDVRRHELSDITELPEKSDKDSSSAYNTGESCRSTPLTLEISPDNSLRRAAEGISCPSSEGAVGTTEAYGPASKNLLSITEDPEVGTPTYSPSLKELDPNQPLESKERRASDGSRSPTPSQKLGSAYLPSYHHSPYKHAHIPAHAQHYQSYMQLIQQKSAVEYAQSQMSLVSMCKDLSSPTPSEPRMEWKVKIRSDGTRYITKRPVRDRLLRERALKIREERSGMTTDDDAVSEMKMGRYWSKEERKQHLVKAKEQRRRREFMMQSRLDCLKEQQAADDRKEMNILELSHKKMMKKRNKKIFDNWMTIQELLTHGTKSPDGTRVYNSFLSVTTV
Experiment: proximity labelling; BioID in brain endothelial cells (EC), PDZRN3 as bait

B1: Mutated in colon cancer protein (MCC) (protein, UniProt P23508 1-829)
chain: MNSGVAMKYGNDSSAELSELHSAALASLKGDIVELNKRLQQTERERDLLEKKLAKAQCEQSHLMREHEDVQERTTLRYEERITELHSVIAELNKKIDRLQGTTIREEDEYSELRSELSQSQHEVNEDSRSMDQDQTSVSIPENQSTMVTADMDNCSDLNSELQRVLTGLENVVCGRKKSSCSLSVAEVDKHIEQLTTASEHCDLAIKTVEEIEGVLGRDLYPNLAEERSRWEKELAGLREENESLTAMLCSKEEELNRTKATMNAIREERDRLRRRVRELQTRLQSVQATGPSSPGRLTSTNRPINPSTGELSTSSSSNDIPIAKIAERVKLSKTRSESSSSDRPVLGSEISSIGVSSSVAEHLAHSLQDCSNIQEIFQTLYSHGSAISESKIREFEVETERLNSRIEHLKSQNDLLTITLEECKSNAERMSMLVGKYESNATALRLALQYSEQCIEAYELLLALAESEQSLILGQFRAAGVGSSPGDQSGDENITQMLKRAHDCRKTAENAAKALLMKLDGSCGGAFAVAGCSVQPWESLSSNSHTSTTSSTASSCDTEFTKEDEQRLKDYIQQLKNDRAAVKLTMLELESIHIDPLSYDVKPRGDSQRLDLENAVLMQELMAMKEEMAELKAQLYLLEKEKKALELKLSTREAQEQAYLVHIEHLKSEVEEQKEQRMRSLSSTSSGSKDKPGKECADAASPALSLAELRTTCSENELAAEFTNAIRREKKLKARVQELVSALERLTKSSEIRHQQSAEFVNDLKRANSNLVAAYEKAKKKHQNKLKKLESQMMAMVERHETQVRMLKQRIALLEEENSRPHTNETSL
With B1 the binding was “binds”.
